In patent publication US10744141B2, “Compositions and methods for treating cancer” (CASE WESTERN RESERVE UNIVERSITY, priority 2015, dated 2020):
At least one structure is not confirmed: it was looked up by name or label, or the drawing left a doubt.

Test system: A549 cells
Details: A549 NSCLC cells, FACS, Dasatinib combined with SMAP

Q: Which “Sub-G1 (apoptotic) fraction” value does the source give for `Cc1nc(Nc2ncc(C(=O)Nc3c(C)cccc3Cl)s2)cc(N2CCN(CCO)CC2)n1` [Dasatinib] here?
A: significantly increases the Sub-G1 (apoptotic) fraction
